Some of the results follow. The main result of the screen is listed elsewhere. These columns were measured beside it and carry no call. The list favours compounds with an active or inconclusive main result. The note in brackets gives the kind of curve behind each potency; many fits are weak.
Assay: qHTS Assay for Lipid Storage Modulators in Drosophila S3 Cells;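 for cell number change: cells counted by Cell Tracker Red CMTPX staining in the red channel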
Details: BODIPY lipid droplet fluorescence, 18-24 h; for cell number change: measured here: cell count max response, cells fed with added oleic acid
Summary of the method: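 Laser-scanning cytometry quantifies lipid droplet accumulation (500–530 nm total intensity; droplet/cell object ratio) in oleic acid-fed (400 uM added) Drosophila S3 cells treated with a concentration series. 20 uM Triacsin C defined 100% inhibition.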

[1] = measured here: lipid fluorescence (Fed channel) AC50, cells fed with added oleic acid
[2] = measured here: cell number channel AC50, cells fed with added oleic acid

SMILES: C=CCn1c(=O)c(C(=O)NCc2ccccc2Cl)c(O)c2ccccc21
- cell number change: 9.97%
- AC50 [1]: 29.1 µM [falling, single point]

SMILES: Cc1nc(NC(=O)c2cccc(-c3cc4ccccc4oc3=O)c2)ccc1Br
- cell number change: -47.7%
- AC50 [2]: 20.6 µM [falling, single point]

SMILES: CC(NC(=O)C1=CC=CN2CCS(=O)(=O)N=C12)c1ccc(Cl)cc1Cl (centres undefined)
- cell number change: 1.03%
- AC50 [1]: 0.0231 µM [falling, full curve, poor fit]

SMILES: COc1ccc(C2CC(=O)Nc3sc(=N)c4c(N)c(C#N)c(N)nc4c32)cc1OC (centres undefined)
- cell number change: 0.938%
- AC50 [1]: 20.6 µM [rising, single point]

SMILES: Cc1nc(N2CCN(C(=O)COc3ccccc3)CC2)c2c(C)c(C)sc2n1
- cell number change: 15.2%
- AC50 [1]: 0.461 µM [rising, partial curve, poor fit]

SMILES: Cc1nc2ccccc2c(=O)n1/N=C/c1ccncc1
- AC50 [1]: 6.51 µM [rising, single point]

SMILES: COc1cccc(C(C(=O)NC2CCCCC2)N(CCN2CCOCC2)C(=O)C2COc3ccccc3O2)c1 (centres undefined)
- cell number change: -5.97%
- AC50 [1]: 2.59 µM [falling, single point]

SMILES: CC(C)Oc1ccc(C(=O)NC2CCCCC2)cc1
- AC50 [1]: 2.59 µM [rising, partial curve]

SMILES: O=C(CCc1ccc(S(=O)(=O)N2CCOCC2)cc1)N1CCCC1
- cell number change: 11%
- AC50 [1]: 1.16 µM [falling, single point]

SMILES: O=C(O)CCCNC(=O)/C(=C\c1ccccc1F)NC(=O)c1ccccc1
- cell number change: -49%
- AC50 [2]: 16.4 µM [falling, single point]

SMILES: CCn1c(C)nnc1SCC(=O)Nc1ccccc1Cl
- cell number change: 2.24%
- AC50 [1]: 1.16 µM [rising, full curve]

SMILES: COc1ccc(N2CCN(C(=O)CCc3nc(-c4ccc(C)cc4)no3)CC2)cc1
- cell number change: -7.25%
- AC50 [1]: 8.2 µM [falling, partial curve]

SMILES: O=C(NC(=S)Nn1cnc2c(cnn2-c2ccccc2)c1=O)c1ccc(Oc2ccccc2)cc1
- cell number change: -50.3%
- AC50 [2]: 29.1 µM [falling, single point]
- AC50 [1]: 0.58 µM [rising, single point]

SMILES: O=C(CNC(=O)c1ccco1)Nc1ccc(N2CCCCCC2)cc1
- cell number change: 2.94%
- AC50 [1]: 20.6 µM [rising, single point]

SMILES: COC(=O)c1[nH]c2ccc(Cl)cc2c1NC(=O)CN1CCc2cc(OC)c(OC)cc2C1
- cell number change: -35.4%
- AC50 [1]: 1.84 µM [rising, partial curve]

SMILES: O=C(COC(=O)/C=C/c1ccc(Cl)cc1)NC1CCCC1
- cell number change: 11.9%
- AC50 [1]: 4.11 µM [falling, single point]

SMILES: CN(Cc1ccccc1NS(=O)(=O)c1ccc(Cl)cc1)C1CCCCC1
- cell number change: -4.87%

SMILES: Cc1cc(C)cc(C(=O)NC(CC(N)=O)c2ccc(N3CCC(Br)CC3)c([N+](=O)[O-])c2)c1 (centres undefined)
- cell number change: 33.8%
- AC50 [2]: 29.1 µM [rising, single point]
- AC50 [1]: 0.58 µM [rising, single point]

SMILES: COc1ccc(Cl)cc1NC(=O)COC(C)=O
- cell number change: 23.9%
- AC50 [1]: 5.17 µM [rising, partial curve]

SMILES: Cc1ccc(-n2[nH]c(C)c(/C=C3/C=Nc4ccccc43)c2=O)cc1C
- cell number change: -29.6%
- AC50 [1]: 16.4 µM [falling, single point]

SMILES: CCOc1cc(CN2CCSCC2)ccc1O
- cell number change: -1.66%
- AC50 [1]: 18.4 µM [falling, partial curve]

SMILES: CC(Sc1nncs1)C(=O)NCC(=O)Nc1ccc(F)c(F)c1F (centres undefined)
- cell number change: 1.97%
- AC50 [2]: 2.31 µM [rising, single point]
- AC50 [1]: 1.3 µM [rising, partial curve]

SMILES: CC(NC(=O)C1CCN(c2nnc(N3CCCC3=O)s2)CC1)c1ccccc1 (centres undefined)
- cell number change: -2.31%
- AC50 [1]: 6.51 µM [rising, single point]

SMILES: CCc1nnc(NC(=O)C2CCCN2C(=O)Nc2ccc(Cl)cc2)s1 (centres undefined)
- cell number change: -25.7%
- AC50 [2]: 0.82 µM [falling, partial curve, poor fit]

SMILES: O=c1c2ccccc2nc2n1CCc1c-2[nH]c2ccccc12
- cell number change: 1.76%
- AC50 [2]: 0.731 µM [rising, full curve, poor fit]
- AC50 [1]: 1.03 µM [rising, full curve]

SMILES: Cc1cc(NC(=O)Cc2ccc(Br)cc2)no1
- cell number change: -11.1%

SMILES: Cn1c(SCC(=O)C(C)(C)C)nnc1-c1ccccn1
- cell number change: 77.9%
- AC50 [2]: 16.4 µM [rising, partial curve]

SMILES: O=C(COc1ccc(S(=O)(=O)N2CCOCC2)cc1)N1CCCCCC1
- cell number change: -5.58%
- AC50 [1]: 3.55 µM [falling, full curve, poor fit]

SMILES: Cc1c([N+](=O)[O-])cc(S(=O)(=O)Nc2ccc(-c3ccc(N4CCCC4)nn3)cc2)cc1[N+](=O)[O-]
- cell number change: 21.3%

SMILES: O=C(Nc1ccc(S(=O)(=O)N2CCOCC2)cc1)c1ccc(Cl)cc1Cl
- cell number change: -21.6%
- AC50 [1]: 20.6 µM [falling, partial curve]

SMILES: Cc1ccc(C)c(-n2nnnc2SCC(=O)NNC(=O)c2ccco2)c1
- cell number change: 5.49%

SMILES: CN1C(=O)C(O)(CC(=O)c2ccccn2)c2cc(Br)ccc21 (centres undefined)
- cell number change: 21.6%
- AC50 [1]: 6.51 µM [falling, single point]

SMILES: CCOc1ccc(NC(=O)CN(C)C(=O)C2CSC3(C)CCC(=O)N23)cc1OCC (centres undefined)
- cell number change: -11.4%

SMILES: CCN(CCNS(=O)(=O)c1ccc2c(c1)oc(=O)n2C)c1ccccc1
- cell number change: -1.45%

SMILES: O=C(C1CCCC1)N1CCC(CC2CC(c3ccc(Cl)cc3)=NO2)(C(=O)NCC2CCCCC2)CC1 (centres undefined)
- cell number change: 51.8%
- AC50 [2]: 29.1 µM [rising, single point]

SMILES: COc1ccc(OC)c(C2CC(=O)c3c([nH]c(C(=O)OCC4CCCO4)c3C)C2)c1 (centres undefined)
- cell number change: 12.4%
- AC50 [2]: 4.61 µM [rising, single point]
- AC50 [1]: 0.651 µM [rising, partial curve]

SMILES: COc1ccc(Cl)cc1NS(=O)(=O)c1c(C)[nH]c(=O)[nH]c1=O
- cell number change: 41.5%
- AC50 [2]: 2.06 µM [rising, full curve]
- AC50 [1]: 4.11 µM [rising, full curve]

SMILES: CCOc1ccc2nc(NCCNC(=S)NCCCN(C)C)c(C#N)cc2c1
- cell number change: 6.68%
- AC50 [1]: 3.66 µM [falling, single point]

SMILES: COc1ccc(C(=O)NCC(=O)OCC(=O)NC2CCCC2)cc1
- cell number change: 121%
- AC50 [2]: 5.17 µM [rising, full curve]
- AC50 [1]: 6.51 µM [rising, single point]

SMILES: Cc1sc2ncnc(SCC(=O)NNC(=O)c3ccco3)c2c1C
- cell number change: 4.64%

SMILES: CCOC(=O)c1ccc(NC(=O)N2CCN(c3ccccn3)CC2)cc1
- cell number change: 3.17%
- AC50 [1]: 0.461 µM [rising, partial curve, poor fit]

SMILES: CC(=O)Nc1cc(Cl)c(N=Cc2ccc(O)cc2O)cc1Cl
- cell number change: -29.4%
- AC50 [2]: 2.06 µM [rising, partial curve]
- AC50 [1]: 25.9 µM [falling, single point]

SMILES: O=S(=O)(Nc1ccc(N2CCCCC2)cc1)c1ccc(F)cc1
- cell number change: -37.8%
- AC50 [2]: 32.6 µM [falling, single point]
- AC50 [1]: 29.1 µM [falling, single point]

SMILES: CCc1cc2c(NC3CCCC3)ncnc2s1
- cell number change: -2.88%

SMILES: O=C(O)C1C2C=CC(C2)C1C(=O)NCc1ccccc1 (centres undefined)
- cell number change: -46.3%
- AC50 [2]: 11.6 µM [falling, partial curve, poor fit]
- AC50 [1]: 8.2 µM [rising, partial curve]

SMILES: CCOC(=O)c1ccc(/C=C2/C=C(c3ccccc3)N(c3ccc(Cl)c(C(=O)O)c3)C2=O)cc1
- cell number change: 5.79%
- AC50 [1]: 20.6 µM [falling, partial curve]

SMILES: O=S(=O)(NCc1ccccn1)c1cc(C(F)(F)F)ccc1Cl
- cell number change: -30.7%
- AC50 [2]: 0.00461 µM [falling, full curve, poor fit]
- AC50 [1]: 29.1 µM [falling, single point]

SMILES: O=C(COc1ccc(S(=O)(=O)N2CCCC2)cc1Cl)NC1CC1
- cell number change: 38.9%
- AC50 [2]: 14.6 µM [rising, partial curve]
- AC50 [1]: 6.51 µM [falling, single point]

SMILES: CCOc1cccc2cc(-c3csc(NC(=O)CCC(=O)NCCCN4CCC(C)CC4)n3)c(=O)oc12
- cell number change: 28.8%
- AC50 [1]: 0.164 µM [rising, full curve]

SMILES: CCOC(=O)c1c(C)[nH]c(C(=O)COC(=O)CCS(=O)(=O)c2ccc(C)cc2)c1C
- cell number change: -11.2%
- AC50 [1]: 3.26 µM [rising, partial curve, poor fit]

SMILES: N#CC(=C1SC=CS1)c1nc(-c2ccccc2)cs1
- cell number change: 39.7%
- AC50 [2]: 0.0058 µM [rising, full curve, poor fit]

SMILES: CCN1CCN(C(=O)NC2CCCCC2)CC1
- cell number change: 5.77%

SMILES: CCSc1nc(-c2ccccc2)nc(C(Cl)Cl)n1
- AC50 [1]: 5.8 µM [falling, partial curve]

SMILES: O=C(NCc1ccccc1F)c1ccncc1
- cell number change: 20.8%
- AC50 [1]: 25.9 µM [falling, single point]

SMILES: O=C(NCc1ccc(F)cc1)c1ccc(CNc2c(N3CCOCC3)c(=O)c2=O)cc1
- cell number change: -3.86%
- AC50 [2]: 0.00517 µM [falling, full curve, poor fit]
- AC50 [1]: 3.26 µM [falling, full curve, poor fit]

SMILES: Cc1cccc(/C=C(\C(=O)C(=O)O)c2ccc3ccccc3n2)c1
- cell number change: 24%
- AC50 [1]: 29.1 µM [rising, single point]

SMILES: COc1ccc(NC(=S)Nn2cnnc2)c(OC)c1
- cell number change: 9.54%
- AC50 [2]: 0.146 µM [rising, full curve, poor fit]

SMILES: CCC(C)Sc1nnc(Cc2cc(=O)[nH]c(=O)[nH]2)n1-c1ccc(OC)cc1 (centres undefined)
- cell number change: -11.1%
- AC50 [1]: 0.461 µM [falling, full curve, poor fit]

SMILES: O=C(N/N=C/c1ccc2ncccc2c1)c1cccc([N+](=O)[O-])c1
- cell number change: 18.5%
- AC50 [1]: 29.1 µM [falling, single point]

From PubChem BioAssay AID2685 (National Center for Advancing Translational Sciences (NCATS), 2010)
